The campaign covered roughly 390,000 compounds. About 4,000 (1%) were called active. The inconclusive results got no clear call from the source; some entries with a clear call stand among them for comparison. Calls follow the shape of the dose curve; as a rule, active = well fitted inhibition curve with a large enough effect; inconclusive = small, poorly fitted or top-dose-only effect, or another doubt; inactive = no such curve, though single readings can be large or run the other way. Potencies of inconclusive entries are doubtful fits and often do not repeat. Some compounds were tested as several samples or in several runs, with calls that do not always agree.
Target: DNA polymerase iota (Homo sapiens) (UniProt Q9UNA4)
Experiment: qHTS for Inhibitors of Polymerase Iota
Settings: Pol iota fluorescent replication assay, 10 min; series mostly up to 115 µM; activity, negative = inhibition: at the top concentration
Outline: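 Fluorescent replication assay read twice, at 0 min and 10 min after adding 50 nM (final) substrate. Enzyme (10 nM) and compounds were first incubated 15 min at room temperature; enzyme-free buffer wells were negative controls.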
Potency is read from the fitted curve at half-maximal effect.

The chains behind the UniProt entries cited, without tags or fusion partners. Where a name states a change or a piece, a line headed by the entry shows the natural chain unless it says otherwise.
UniProt Q9UNA4: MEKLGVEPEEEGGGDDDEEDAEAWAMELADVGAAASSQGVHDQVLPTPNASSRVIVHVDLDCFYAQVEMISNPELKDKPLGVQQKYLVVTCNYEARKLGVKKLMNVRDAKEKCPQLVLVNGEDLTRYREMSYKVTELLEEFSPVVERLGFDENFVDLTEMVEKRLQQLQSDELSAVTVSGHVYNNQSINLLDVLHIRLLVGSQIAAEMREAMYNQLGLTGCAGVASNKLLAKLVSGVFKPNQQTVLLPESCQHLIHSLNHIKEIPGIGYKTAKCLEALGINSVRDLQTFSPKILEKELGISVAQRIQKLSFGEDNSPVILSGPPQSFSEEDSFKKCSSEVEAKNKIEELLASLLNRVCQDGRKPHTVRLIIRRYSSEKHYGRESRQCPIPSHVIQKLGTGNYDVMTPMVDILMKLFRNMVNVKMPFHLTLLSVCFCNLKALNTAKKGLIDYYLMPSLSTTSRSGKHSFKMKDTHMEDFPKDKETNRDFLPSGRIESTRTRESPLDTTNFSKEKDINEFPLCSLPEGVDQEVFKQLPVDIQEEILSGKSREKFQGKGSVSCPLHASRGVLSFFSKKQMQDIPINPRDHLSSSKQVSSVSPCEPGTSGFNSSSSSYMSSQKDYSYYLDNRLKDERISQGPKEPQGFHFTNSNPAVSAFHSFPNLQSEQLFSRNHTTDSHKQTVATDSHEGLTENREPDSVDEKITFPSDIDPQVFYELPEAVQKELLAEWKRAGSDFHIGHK

SMILES	Potency	activity, negative = inhibition
O=C(O)c1ccccc1-c1c2cc(I)c(=O)c(I)c-2oc2c(I)c(O)c(I)cc12	active: 12.6 µM	–
CCOC(=O)c1c(NC(=O)CN2C(=O)NC3(CCCCC3C)C2=O)sc(C)c1C (centres undefined)	inconclusive: 50.1 µM [inhibitor, partial curve, poor fit]	–
O=C(Nc1cccnc1)c1cc2c(ccc3ccccc32)o1	active: 50.1 µM	–
Oc1cccc(/C=N/Nc2ncnc3c2ncn3Cc2ccccc2)c1	–	inactive: -5.14%
COc1cccc(C=Nc2cc(C(C)C)c(O)cc2C)c1O	inconclusive: 25.1 µM [inhibitor, single point]	–
CN(C)C(=O)c1ccc(-c2cc(C(F)(F)F)n(C)n2)s1	–	inactive: 157%
O=C1Nc2ccc(S(=O)(=O)N3CCCCCC3)c3cccc1c23	inconclusive: 70.8 µM [inhibitor, partial curve, poor fit]	–
Cc1cccc(C(C)(C)C)c1OCCCCN1CCCC1	inconclusive: 6.31 µM [inhibitor, single point]	–
COc1ccc(NC(=O)CN(C)C(=O)c2cc(-c3ccco3)nc3ccccc23)cc1	active: 8.91 µM	–
O=C(/C=C/c1ccc(Cl)cc1)c1cccnc1	inconclusive: 28.2 µM [inhibitor, single point]	–
O=S1(=O)CC(O)C(N2CCCCC2)C1 (centres undefined)	–	inactive: 8.62%
COc1ccc(NC(=O)C(C)Sc2nnc3c4c(nc(-c5ccc(OC)cc5)n23)CC(C)(C)OC4)cc1 (centres undefined)	inconclusive: 89.1 µM [inhibitor, single point]	–
CCOc1ccccc1N1C(=O)CC(N(O)c2ccccc2)C1=O (centres undefined)	inconclusive: 39.8 µM [inhibitor, partial curve, poor fit]	–
O=[N+]([O-])c1ccccc1S(=O)(=O)N1CCN(c2nc(-c3ccccc3)nc3ccccc23)CC1	inconclusive: 70.8 µM [inhibitor, single point]	–
O=C1/C(=C\c2ccco2)NC(=S)N1c1ccccc1	inconclusive: 15.8 µM [inhibitor, full curve, poor fit]	–
Cc1cc2nc(-c3ccc(SCC(=O)Nc4ccc(S(=O)(=O)N5CCCC5)cc4)nc3)[nH]c2cc1C	inconclusive: 14.1 µM [inhibitor, partial curve, poor fit]	–
Cc1oc2ccc(O)c(CN3CCCCCC3)c2c1C(=O)Nc1cccc(C(F)(F)F)c1	–	inactive: 3.97%
CCCN(CC(=O)Nc1ccccc1OC)C(=O)c1ccc2[nH]c3c(c2c1)CC(C)CC3 (centres undefined)	–	inactive: -3.97%
Cc1ccc2occ(/C=N/O)c(=O)c2c1	inconclusive: 89.1 µM [inhibitor, partial curve, poor fit]	–
Cc1cc(=O)oc2cc(OCC(=O)OCC(=O)Nc3ccccc3Br)ccc12	inconclusive: 100 µM [inhibitor, partial curve, poor fit]	–
COc1ccccc1NS(=O)(=O)c1cn(C)c(C)n1	–	inactive: -20.4%
COc1cc2ccccc2cc1C(=O)N1CCN(c2ccccc2O)CC1	inconclusive: 10 µM [inhibitor, partial curve, poor fit]	–

SMILES	Potency	activity, negative = inhibition
CN(C)c1ncc(C2=C(Cl)C(=O)C(N3CCCC3)=C(Cl)C2=O)s1	active: 7.94 µM	–
N#CC1(Cc2ccccc2)c2ccccc2C=CN1C(=O)c1ccccc1 (centres undefined)	inconclusive: 14.1 µM [inhibitor, partial curve, poor fit]	–
COc1ccc(C)cc1-n1nnnc1SCC(=O)NC(=O)NCc1ccco1	active: 28.2 µM	–
O=C(O)CCc1ccc(-c2ccccc2)n1CC(=O)O	inconclusive: 4.47 µM [inhibitor, partial curve, poor fit]	–
O=C(O)c1cc2ncc(-c3[nH]ncc3[N+](=O)[O-])cn2n1	inconclusive: 31.6 µM [inhibitor, single point]	–
O=C(NCCF)[C@H]1C[C@@H]1[C@H](NP(=O)(c1ccccc1)c1ccccc1)c1ccccc1	inconclusive: 0.708 µM [inhibitor, full curve, poor fit]	–
COc1ccc(-c2nc(C)c(C(C)=O)n2O)cc1[N+](=O)[O-]	inconclusive: 39.8 µM [inhibitor, single point]	–
CC(=O)NC(c1cc(F)c2cccnc2c1O)C1CC1 (centres undefined)	inconclusive: 31.6 µM [inhibitor, partial curve, poor fit]	–
COc1ccc(-c2cc(C)no2)cc1S(=O)(=O)Nc1c(C)cc(C)cc1C	–	inactive: -18.7%
O=C(O)C1Cc2ccccc2CN1S(=O)(=O)c1ccccc1 (centres undefined)	–	inactive: 54.8%
C=CCNC(=O)c1cnc2n(c1=O)CCS2	inconclusive: 1.58 µM [inhibitor, partial curve, poor fit]	–
COc1ccc(OCC(=O)Nc2ccccc2C(=O)Nc2ccc(C(=O)O)cc2)cc1	inconclusive: 17.8 µM [inhibitor, partial curve, poor fit]	–
COc1ccc(-c2c(C)c3ccc(O)c(CN4CCOCC4)c3oc2=O)cc1	inconclusive: 100 µM [inhibitor, partial curve, poor fit]	–
Cc1ccc(-c2nn(CC(=O)Nc3ccc4c(c3)nc3n4CCOC3)c(=O)c3ccccc23)cc1	inconclusive: 31.6 µM [inhibitor, partial curve, poor fit]	–
CCC12CN(C(=O)c3ccc(C)cc3)CC(CC)(CN(C(=O)c3ccc(C)cc3)C1)C2=O	inconclusive: 89.1 µM [inhibitor, single point]	–
CCOC(=O)C1CCN(C(c2ccc(SC)cc2)c2c(O)cc(C)n(Cc3ccco3)c2=O)CC1 (centres undefined)	inconclusive: 89.1 µM [inhibitor, single point]	–
O=C(NCc1cccnc1)C(=O)NCC1OCCN1S(=O)(=O)c1cc(F)ccc1F (centres undefined)	inconclusive: 79.4 µM [inhibitor, single point]	–
CC1=Nc2ccccc2/C1=C/c1c(N)n2c(S(=O)(=O)C(C)C)nsc2nc1=O	–	inactive: 49.9%
CN(/C=C/C(=C\C=[N+](C)c1ccccc1)OCCCS(=O)(=O)[O-])c1ccccc1	inconclusive: 28.2 µM [inhibitor, partial curve, poor fit]	–
CCO[C@@H]1OC(C(=O)N2CCOCC2)=C[C@H](C(C)(C)C)[C@H]1CCCO	inconclusive: 31.6 µM [inhibitor, partial curve, poor fit]	–
Cn1c(SCC(=O)c2ccccc2)nnc1-c1cnccn1	inconclusive: 15.8 µM [inhibitor, partial curve, poor fit]	–
COCc1[nH]nc2c1C(c1cc(OC)c(O)c(OC)c1)C(C#N)=C(N)O2 (centres undefined)	inconclusive: 14.1 µM [inhibitor, partial curve, poor fit]	–

Copied from above, 5 compounds:
SMILES	Potency	activity, negative = inhibition
CC1=Nc2ccccc2/C1=C/c1c(N)n2c(S(=O)(=O)C(C)C)nsc2nc1=O	–	inactive: 49.9%
CN(/C=C/C(=C\C=[N+](C)c1ccccc1)OCCCS(=O)(=O)[O-])c1ccccc1	inconclusive: 28.2 µM [inhibitor, partial curve, poor fit]	–
CCO[C@@H]1OC(C(=O)N2CCOCC2)=C[C@H](C(C)(C)C)[C@H]1CCCO	inconclusive: 31.6 µM [inhibitor, partial curve, poor fit]	–
Cn1c(SCC(=O)c2ccccc2)nnc1-c1cnccn1	inconclusive: 15.8 µM [inhibitor, partial curve, poor fit]	–
COCc1[nH]nc2c1C(c1cc(OC)c(O)c(OC)c1)C(C#N)=C(N)O2 (centres undefined)	inconclusive: 14.1 µM [inhibitor, partial curve, poor fit]	–

Carrying on.

SMILES	Potency	activity, negative = inhibition
COc1ccc(CNC(=O)Cn2ncc3c4ccccc4n(Cc4cccc(Cl)c4)c3c2=O)cc1	inconclusive: 79.4 µM [inhibitor, partial curve]	–
Cc1cccc(N2CCN(S(=O)(=O)c3ccc(-c4coc(C)n4)cc3)CC2C)c1 (centres undefined)	–	inactive: 18.2%
COc1ccccc1CNC(=O)C1CCCN(C(=O)c2cnn(-c3ccc(F)cc3)c2-n2cccc2)C1 (centres undefined)	–	inactive: 11.8%
COc1ccccc1OCCCSc1nc(-c2ccc(C(C)(C)C)cc2)nc2cc(=O)[nH]n12	inconclusive: 89.1 µM [inhibitor, single point]	–
O=C(NCCc1ccco1)C(=O)NCC1CCCN1S(=O)(=O)c1ccccc1 (centres undefined)	inconclusive: 56.2 µM [inhibitor, partial curve, poor fit]	–
Cn1c(=O)c2c(-c3ccc(Cl)cc3)n(Cc3ccc(Cl)cc3)cc2n(C)c1=O	inconclusive: 89.1 µM [inhibitor, partial curve, poor fit]	–
Cc1cccc(NC(=O)c2cccnc2Oc2ccccc2)c1C(=O)O	inconclusive: 1.58 µM [inhibitor, partial curve, poor fit]	–
O=C(N/N=C/c1ccc(F)cc1)c1cc(-c2ccc3c(c2)OCO3)n[nH]1	–	inactive: 5.41%
Cc1cc(S(=O)(=O)ON2C(=O)c3ccccc3C2=O)ccc1F	inconclusive: 22.4 µM [inhibitor, single point]	–
COc1cccc(CNC(=O)C(CC(C)C)NS(=O)(=O)c2ccc3c(c2)oc(=O)n3C)c1 (centres undefined)	inconclusive: 39.8 µM [inhibitor, partial curve, poor fit]	–
Cc1cccc(OCC(=O)NCCNC(=O)c2cnccn2)c1	inconclusive: 35.5 µM [inhibitor, single point]	–
NC(=S)N=Nc1ccc(O)cc1	inconclusive: 28.2 µM [inhibitor, partial curve, poor fit]	–
Oc1c(Br)cc(Cl)cc1C=Nc1ccc(N2CCOCC2)cc1	inconclusive: 0.631 µM [inhibitor, full curve, poor fit]	–
COc1cc(CNCc2cccnc2)ccc1OCC(=O)NC(C)(C)C	inconclusive: 12.6 µM [inhibitor, full curve, poor fit]	–
Cc1ccc(-c2cn3nc(N4CCCC(C(=O)Nc5ccc(F)cc5)C4)sc3n2)cc1 (centres undefined)	–	inactive: -0.902%
CCOc1cc(CNCc2ccccn2)cc(Cl)c1OC	inconclusive: 20 µM [inhibitor, partial curve, poor fit]	–
Cc1ccccc1Oc1ccc(S(=O)(=O)NCCC(=O)O)cc1	inconclusive: 8.91 µM [inhibitor, full curve, poor fit]	–
COc1ccc(Br)cc1CNC(=O)c1cnc2sc(N3CCCC3)nn2c1=O	–	inactive: 31.6%
COc1cc(C(=O)Nc2ccc(C)c(S(=O)(=O)N(C)C)c2)ccc1OCC(=O)N1CCOCC1	active: 50.1 µM	–
Cc1ccc(C)c(NC(=O)Cn2nnc(C(=O)NCc3ccccc3Cl)c2N)c1	inconclusive: 89.1 µM [inhibitor, single point]	–

— PubChem BioAssay AID588590 (National Center for Advancing Translational Sciences (NCATS), 2011)
